Results from patent publication US4057530A, “2-Phenyl-indole derivatives and process for preparing the same” (priority 1974, dated 1977).

Key:
[1] = Extractibility of the stabilizers from bottles of Compounds Nos. 609 and 675
[2] = Extractibility of the stabilizer from Compound A containing Stabilizer 16
Experimental: This study was carried out in accordance with the requirements of the Food and Drug Administration (U.S.A.).
The extractions were performed in semi-rigid bottles, prepared with Compounds Nos. 609 and 675, and with the following solvents: water, an aqueous solution of acetic acid (3%), ethanol-water 50/50, heptane.
The ratio of the volume of solvent to the surface of plastic material exposed to extraction was about 1 cm^2 to […] of solvent, taking into account the geometric characteristics of the bottles.
The quantity of stabilizer extracted was determined by colorimetric assay using p-dimethylaminobenzaldehyde, in accordance with the method described in Analytical Chemistry 36, 425-26 (1964).
The amounts of stabilizer assayed are expressed in μg per liter of extraction solvent or, which is the same, per 1000 cm^2 of surface submitted to extraction.
The same trials were carried out with Compound A containing 2-(4'-dodecylthio-phenyl)-indole (Stabilizer 16) as stabilizer and the following results were obtained: […]

Row | Compound | Extractibility in water, times less than 2-phenyl-indole [1] | Extractibility in water, times less than 2-phenyl-indole [2]
1 | CCCCCCCCCCCCOc1ccc(-c2cc3ccccc3[nH]2)cc1 [Stabilizer 8, 2-(4'-dodecyloxy-phenyl)-indole] | at least 10 times less | –
2 | CCCCCCCCCCCCSc1ccc(-c2cc3ccccc3[nH]2)cc1 [Stabilizer 16, 2-(4'-n-dodecylthio-phenyl)-indole] | – | at least 10 times less
